Data reported in article PMC10272139.
No constants are given. Whether binding was seen depends on the method and setting. In cells and extracts the contact can be indirect. Some results given as binding are weak or reduced against the parent protein; the word gives no strength.

Chains of the proteins cited; added tags and fusions are not shown.
UniProt G5E8K5: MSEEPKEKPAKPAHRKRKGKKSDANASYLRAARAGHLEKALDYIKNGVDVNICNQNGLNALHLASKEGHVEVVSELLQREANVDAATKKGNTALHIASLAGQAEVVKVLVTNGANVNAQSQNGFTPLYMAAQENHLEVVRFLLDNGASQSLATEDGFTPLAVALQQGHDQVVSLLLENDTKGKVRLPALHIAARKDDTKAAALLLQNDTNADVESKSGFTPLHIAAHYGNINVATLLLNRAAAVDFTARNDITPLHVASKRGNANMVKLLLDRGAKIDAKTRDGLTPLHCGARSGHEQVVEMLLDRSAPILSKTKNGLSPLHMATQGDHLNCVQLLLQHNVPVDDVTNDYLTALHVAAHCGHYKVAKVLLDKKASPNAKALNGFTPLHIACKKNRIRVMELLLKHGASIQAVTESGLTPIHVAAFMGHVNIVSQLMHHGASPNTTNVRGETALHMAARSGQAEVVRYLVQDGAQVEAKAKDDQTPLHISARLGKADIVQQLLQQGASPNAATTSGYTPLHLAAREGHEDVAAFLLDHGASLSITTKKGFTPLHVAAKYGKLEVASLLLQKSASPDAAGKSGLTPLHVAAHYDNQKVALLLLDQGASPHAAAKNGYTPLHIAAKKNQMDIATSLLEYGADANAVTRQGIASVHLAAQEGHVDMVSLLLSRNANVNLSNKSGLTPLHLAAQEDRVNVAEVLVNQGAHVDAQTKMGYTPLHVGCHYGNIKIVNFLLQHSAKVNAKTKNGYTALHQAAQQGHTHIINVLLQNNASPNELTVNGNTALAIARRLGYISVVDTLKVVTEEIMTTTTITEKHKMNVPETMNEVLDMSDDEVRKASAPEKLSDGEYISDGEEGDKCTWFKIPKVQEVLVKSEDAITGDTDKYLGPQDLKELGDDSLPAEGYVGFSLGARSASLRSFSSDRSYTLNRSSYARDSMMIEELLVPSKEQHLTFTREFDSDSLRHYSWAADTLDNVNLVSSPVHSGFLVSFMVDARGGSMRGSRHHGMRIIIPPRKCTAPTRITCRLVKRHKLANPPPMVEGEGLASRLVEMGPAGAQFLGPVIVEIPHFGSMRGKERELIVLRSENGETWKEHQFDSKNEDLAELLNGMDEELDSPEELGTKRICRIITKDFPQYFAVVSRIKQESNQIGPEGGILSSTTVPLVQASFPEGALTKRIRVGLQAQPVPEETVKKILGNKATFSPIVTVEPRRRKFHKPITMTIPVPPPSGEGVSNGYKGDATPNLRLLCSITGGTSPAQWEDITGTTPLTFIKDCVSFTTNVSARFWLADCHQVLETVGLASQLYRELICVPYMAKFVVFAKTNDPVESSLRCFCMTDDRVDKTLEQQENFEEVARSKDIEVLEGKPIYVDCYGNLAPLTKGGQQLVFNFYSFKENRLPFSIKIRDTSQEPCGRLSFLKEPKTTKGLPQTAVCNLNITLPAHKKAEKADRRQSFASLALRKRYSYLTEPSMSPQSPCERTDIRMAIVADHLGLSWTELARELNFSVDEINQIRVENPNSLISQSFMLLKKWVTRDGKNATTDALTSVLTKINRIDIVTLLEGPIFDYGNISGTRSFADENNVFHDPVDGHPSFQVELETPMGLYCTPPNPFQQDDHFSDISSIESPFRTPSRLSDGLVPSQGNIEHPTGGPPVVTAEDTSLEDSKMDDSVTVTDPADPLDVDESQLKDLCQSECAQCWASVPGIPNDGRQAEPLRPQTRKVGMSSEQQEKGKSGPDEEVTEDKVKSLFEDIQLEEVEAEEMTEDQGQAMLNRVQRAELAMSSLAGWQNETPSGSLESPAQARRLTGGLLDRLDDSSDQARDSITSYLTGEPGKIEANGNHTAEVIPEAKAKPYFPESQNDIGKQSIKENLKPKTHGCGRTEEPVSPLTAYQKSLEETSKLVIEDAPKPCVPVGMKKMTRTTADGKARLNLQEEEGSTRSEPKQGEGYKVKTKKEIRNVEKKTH
UniProt Q8K3F6: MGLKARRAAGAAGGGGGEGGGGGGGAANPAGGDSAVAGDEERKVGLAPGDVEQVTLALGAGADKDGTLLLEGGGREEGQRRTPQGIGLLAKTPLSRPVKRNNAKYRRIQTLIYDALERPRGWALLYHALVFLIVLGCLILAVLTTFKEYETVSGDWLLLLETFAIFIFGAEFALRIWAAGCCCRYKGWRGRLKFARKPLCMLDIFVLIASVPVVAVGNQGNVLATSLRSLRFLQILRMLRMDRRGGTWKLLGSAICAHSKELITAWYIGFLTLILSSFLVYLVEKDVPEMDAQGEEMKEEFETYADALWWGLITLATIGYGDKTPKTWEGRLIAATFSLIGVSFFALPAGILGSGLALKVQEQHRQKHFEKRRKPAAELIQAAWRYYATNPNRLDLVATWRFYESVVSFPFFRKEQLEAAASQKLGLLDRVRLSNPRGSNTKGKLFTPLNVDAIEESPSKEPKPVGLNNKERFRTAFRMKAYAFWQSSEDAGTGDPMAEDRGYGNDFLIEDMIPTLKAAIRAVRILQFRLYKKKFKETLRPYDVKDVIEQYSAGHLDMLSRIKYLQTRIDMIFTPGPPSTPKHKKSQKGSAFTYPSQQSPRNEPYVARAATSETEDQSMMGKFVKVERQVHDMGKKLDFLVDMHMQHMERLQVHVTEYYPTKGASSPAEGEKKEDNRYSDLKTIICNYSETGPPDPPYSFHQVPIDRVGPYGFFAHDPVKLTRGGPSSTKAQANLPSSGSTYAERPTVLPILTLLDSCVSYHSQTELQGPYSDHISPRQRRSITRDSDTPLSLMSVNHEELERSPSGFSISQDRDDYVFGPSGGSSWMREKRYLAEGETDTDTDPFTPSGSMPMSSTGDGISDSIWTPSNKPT
UniProt Q9Z351: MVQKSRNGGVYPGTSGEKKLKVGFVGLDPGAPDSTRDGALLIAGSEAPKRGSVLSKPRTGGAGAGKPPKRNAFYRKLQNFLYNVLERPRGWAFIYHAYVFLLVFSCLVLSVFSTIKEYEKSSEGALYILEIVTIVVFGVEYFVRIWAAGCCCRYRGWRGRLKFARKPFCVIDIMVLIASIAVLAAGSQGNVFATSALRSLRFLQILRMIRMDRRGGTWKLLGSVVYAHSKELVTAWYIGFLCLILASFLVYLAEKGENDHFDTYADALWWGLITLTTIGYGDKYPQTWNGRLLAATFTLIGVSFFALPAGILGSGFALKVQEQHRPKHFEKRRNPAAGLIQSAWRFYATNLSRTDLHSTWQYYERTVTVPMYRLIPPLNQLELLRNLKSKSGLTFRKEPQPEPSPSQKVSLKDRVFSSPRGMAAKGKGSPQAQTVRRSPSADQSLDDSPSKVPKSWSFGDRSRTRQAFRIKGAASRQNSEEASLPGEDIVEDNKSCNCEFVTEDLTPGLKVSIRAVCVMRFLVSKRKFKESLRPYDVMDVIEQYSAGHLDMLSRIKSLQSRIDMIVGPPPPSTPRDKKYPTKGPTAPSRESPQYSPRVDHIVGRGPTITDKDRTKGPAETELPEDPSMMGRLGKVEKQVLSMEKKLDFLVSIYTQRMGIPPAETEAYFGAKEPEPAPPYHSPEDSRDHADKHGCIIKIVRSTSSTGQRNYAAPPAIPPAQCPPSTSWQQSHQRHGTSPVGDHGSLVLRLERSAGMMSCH

Molecular target: Ank3 (mouse (endogenous in cultured hippocampal neurons)) (UniProt G5E8K5)
Assay: co-IP; lysate of WT mouse cultured hippocampal neurons (DIV 17-18); lysis buffer 150 mM NaCl, 50 mM Tris pH 7.4, 1 mM EDTA, 1% TX-100; 1 ug mouse IgG, anti-Ank2 or anti-Ank3 antibody, 4 °C 2 h; protein A/G agarose beads; immunoblot

## Kv7.3/KCNQ3 potassium channel subunit (from UniProt Q8K3F6 1-873)
  binding: binds

## Kv7.2/KCNQ2 potassium channel subunit (from UniProt Q9Z351 1-759)
  binding: binds
